Reference: article PMC8178412
No constants are given. Whether binding was seen depends on the method and setting. Binding seen in cells or lysates may run through a third protein. Some results given as binding are weak or reduced against the parent protein; the word gives no strength. For some of these results: Sequences can lack the tags named with a protein.

Protein sequences, listed by entry. Tags and fused reporters are not part of them.
UniProt P02340: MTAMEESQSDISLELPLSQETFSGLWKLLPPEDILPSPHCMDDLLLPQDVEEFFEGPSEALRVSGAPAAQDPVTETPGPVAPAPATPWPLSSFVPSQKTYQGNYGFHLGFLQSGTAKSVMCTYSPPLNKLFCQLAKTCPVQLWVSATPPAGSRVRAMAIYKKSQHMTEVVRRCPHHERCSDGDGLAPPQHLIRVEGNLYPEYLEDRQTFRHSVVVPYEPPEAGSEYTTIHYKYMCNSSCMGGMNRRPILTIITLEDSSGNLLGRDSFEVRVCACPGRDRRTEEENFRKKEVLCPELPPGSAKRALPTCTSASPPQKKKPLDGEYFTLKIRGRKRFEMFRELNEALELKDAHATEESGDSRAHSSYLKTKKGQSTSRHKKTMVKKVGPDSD

Key:
[1] = biological target: p53 (endogenous, mouse) (mouse (endogenous in mouse liver, NIH3T3 and MEFs)) (UniProt P02340); assay: co-IP; liver extracts of mice fed chow or HFD; lysis buffer 20 mM Tris-HCl pH 7.5, 150 mM NaCl, 10% glycerol, 1% Triton X-100; anti-p53 antibody overnight at 4 °C, protein A/G PLUS-Agarose beads; western blot
[2] = biological target: p53 (endogenous, mouse) (mouse (endogenous in mouse liver, NIH3T3 and MEFs)) (UniProt P02340); assay: co-IP; NIH3T3 lysates with or without ectopic Zbtb7c; lysis buffer 20 mM Tris-HCl pH 7.5, 150 mM NaCl, 10% glycerol, 1% Triton X-100; antibody (Zbtb7c, p53 or Myc) overnight at 4 °C, protein A-Sepharose beads; western blot
[3] = biological target: p53 (endogenous, mouse) (mouse (endogenous in mouse liver, NIH3T3 and MEFs)) (UniProt P02340); assay: co-IP; total extracts of WT and Zbtb7c-KO MEFs; lysis buffer 20 mM Tris-HCl pH 7.5, 150 mM NaCl, 10% glycerol, 1% Triton X-100; anti-p53 antibody overnight at 4 °C, protein A-Sepharose beads; western blot

Row | binding [1] | binding [2] | binding [3] | Binder
1 | binds | – | – | Zbtb7c (endogenous, mouse liver) (protein, UniProt Q8VCZ7 1-619) MANDIDELIGIPFPNHSSEVLCSLNEQRHAGLLCDVLLVVQEQEYRTHRSVLAACSKYFKKLFTAGSLASQPYVYEIDFVQPEALAAILEFAYTSTLTITASNVKHILNAARMLEIQCIVNVCLEIMEPGGSVGEEDDKEEEDEDDDDEDEDDEEEEEEEEEEEEDDPEDFADQENLPDPQDITCPQSPSKTDHLTEKDYSDTPRDFPDSFQPGSPGHLGVIRDFSIESLLRENLYPKANIPDRRPSLSPFAPEFFPHLWPGGFGAFAQLPEQPMDSGPLDLVIKNRKIKEEDKEELAPPPPPPFSSDFFKDMFPDLPGGPLGPIKAENDYGAYLNFLSATHLGSLFPPWPLVEERKLKPKASQQCPICHKVIMGAGKLPRHMRTHTGEKPYMCSICEVRFTRQDKLKIHMRKHTGERPYLCIHCNAKFVHNYDLKNHMRIHTGVRPYQCEFCYKSFTRSDHLHRHIKRQSCRMARPRRGRKPAAWRAASLLFGPGGPSADKAAFVMPPALGDVGGHLGGTAVCLPGPSPAKHFLASPKGTLSLQELERQFEETQMKLFGRAQLEAERNAGGLLALALAENVAATRPYFPLPDPWAAGLAGLPGLTGLNHVASMSEANN
2 | – | binds | – | Myc-tagged Zbtb7c (protein, UniProt Q8VCZ7 1-619) MANDIDELIGIPFPNHSSEVLCSLNEQRHAGLLCDVLLVVQEQEYRTHRSVLAACSKYFKKLFTAGSLASQPYVYEIDFVQPEALAAILEFAYTSTLTITASNVKHILNAARMLEIQCIVNVCLEIMEPGGSVGEEDDKEEEDEDDDDEDEDDEEEEEEEEEEEEDDPEDFADQENLPDPQDITCPQSPSKTDHLTEKDYSDTPRDFPDSFQPGSPGHLGVIRDFSIESLLRENLYPKANIPDRRPSLSPFAPEFFPHLWPGGFGAFAQLPEQPMDSGPLDLVIKNRKIKEEDKEELAPPPPPPFSSDFFKDMFPDLPGGPLGPIKAENDYGAYLNFLSATHLGSLFPPWPLVEERKLKPKASQQCPICHKVIMGAGKLPRHMRTHTGEKPYMCSICEVRFTRQDKLKIHMRKHTGERPYLCIHCNAKFVHNYDLKNHMRIHTGVRPYQCEFCYKSFTRSDHLHRHIKRQSCRMARPRRGRKPAAWRAASLLFGPGGPSADKAAFVMPPALGDVGGHLGGTAVCLPGPSPAKHFLASPKGTLSLQELERQFEETQMKLFGRAQLEAERNAGGLLALALAENVAATRPYFPLPDPWAAGLAGLPGLTGLNHVASMSEANN
3 | – | binds | binds | mSin3A (protein, UniProt Q60520 1-1274) MKRRLDDQESPVYAAQQRRIPGSTEAFSHQHRVLAPAPPVYEAVSETMQSATGIQYSVAPNYQVSAVPQSSGSHGPAIAAVHSSHHHPTAVQPHGGQVVQSHAHPAPPVAPVQGQQQFQRLKVEDALSYLDQVKLQFGSQPQVYNDFLDIMKEFKSQSIDTPGVISRVSQLFKGHPDLIMGFNTFLPPGYKIEVQTNDMVNVTTPGQVHQIPTHGIQPQPQPPPQHPSQPSSQSAPTPAQPAPQPTAAKVSKPSQLQAHTPASQQTPPLPPYASPRSPPVQPHTPVTISLGTAPSLQNNQPVEFNHAINYVNKIKNRFQGQPDIYKAFLEILHTYQKEQRNAKEAGGNYTPALTEQEVYAQVARLFKNQEDLLSEFGQFLPDANSSVLLSKTTAEKVDSVRNDHGGTVKKPQLNNKPQRPSQNGCQIRRHSGTGATPPVKKKPKLMSLKESSMADASKHGVGTESLFFDKVRKALRSAEAYENFLRCLVIFNQEVISRAELVQLVSPFLGKFPELFNWFKNFLGYKESVHLESFPKERATEGIAMEIDYASCKRLGSSYRALPKSYQQPKCTGRTPLCKEVLNDTWVSFPSWSEDSTFVSSKKTQYEEHIYRCEDERFELDVVLETNLATIRVLEAIQKKLSRLSAEEQAKFRLDNTLGGTSEVIHRKALQRIYADKAADIIDGLRKNPSIAVPIVLKRLKMKEEEWREAQRGFNKVWREQNEKYYLKSLDHQGINFKQNDTKVLRSKSLLNEIESIYDERQEQATEENAGVPVGPHLSLAYEDKQILEDAAALIIHHVKRQTGIQKEDKYKIKQIMHHFIPDLLFAQRGDLSDVEEEEEEEMDVDEATGAPKKHNGVGGSPPKSKLLFSNTAAQKLRGMDEVYNLFYVNNNWYIFMRLHQILCLRLLRICSQAERQIEEENREREWEREVLGIKRDKSDSPAIQLRLKEPMDVDVEDYYPAFLDMVRSLLDGNIDSSQYEDSLREMFTIHAYIAFTMDKLIQSIVRQLQHIVSDEVCVQVTDLYLAENNNGATGGQLNSQTSRSLLESAYQRKAEQLMSDENCFKLMFIQSQGQVQLTVELLDTEEENSDDPVEAERWSDYVERYMSSDTTSPELREHLAQKPVFLPRNLRRIRKCQRGREQQEKEGKEGNSKKTMENVESLDKLECRFKLNSYKMVYVIKSEDYMYRRTALLRAHQSHERVSKRLHQRFQAWVDKWTKEHVPREMAAETSKWLMGEGLEGLVPCTTTCDTETLHFVSINKYRVKYGTVFKAP
